# Publication PMC12040169 (PLOS Biology, 2025)
# This is one part of the list.
# Test system: T1, CTL2-GFP (C. trachomatis L2/434/Bu, GFP-expressing)
# T1 construct: L2/434/Bu, GFP-expressing
# Design: species or system HeLa; Intracellular C. trachomatis growth in HeLa cells, bulk GFP fluorescence relative to DMSO
# Details: bulk GFP, single well; 28.5 h, 10 µM; inhibitor
row,SMILES,% of control remaining
1,Cc1nc(CCNC(=O)C2CC(c3cccc(F)c3)=NO2)cs1 (centres unmarked) [CBK305798],127.061%
2,Cc1ccc(SCCC(=O)NC(CCC(=O)O)C(=O)O)cc1 (centres unmarked) [CBK295173],144.216%
3,O=S1(=O)CC(OS(=O)(=O)c2ccc(Cl)cc2)C(OS(=O)(=O)c2ccc(Cl)cc2)C1 (centres unmarked) [CBK262049],86.2794%
4,COc1ccc(NC(=O)c2ccc3nsnc3c2)cc1 [CBK263160],94.7385%
5,CCC(C)(C)c1ccc(S(=O)(=O)N2CCN(Cc3c(C)nn(C)c3C)CC2)cc1 [CBK062835],88.5963%
6,CS(=O)(=O)Nc1nccnc1N1CCN(C(=O)c2ccno2)CC1 [CBK048861],129.866%
7,O=C(O)c1ccc(NC(=O)c2cc(S(=O)(=O)N3CCCCC3)cs2)cc1 [CBK265722],135.375%
8,CCNC(=O)c1ccc(-n2cccn2)c(C#Cc2cccnc2)c1 [CBK283150],87.3476%
9,CC1CN(c2cc(CNc3ncccc3Cl)ccn2)CCO1 (centres unmarked) [CBK306456],96.7521%
10,CCOC(=O)N1CCN(C(=O)CCC(=O)O)CC1 [CBK287075],107.643%
11,COCc1cc(C)nc(OCC(=O)N2CCCCC2)c1C#N [CBK270228],119.31%
12,CN(C)S(=O)(=O)c1cccnc1OCC(O)CNC(C)(C)C (centres unmarked) [CBK058059],136.883%
13,CS(=O)(=O)N1CCc2cc(S(=O)(=O)NCCc3c[nH]c4ccccc34)ccc21 [CBK268487],131.241%
14,O=C(O)c1cc(NCc2ccccc2)ccc1N1CCOCC1 [CBK287099],104.447%
15,COc1ccc(C(=O)Nc2ccccc2)cc1S(=O)(=O)Nc1cccnc1 [CBK266771],114.817%
16,O=C(c1ccc2ncsc2c1)N1CCN(S(=O)(=O)c2ccc(C(F)(F)F)cc2)CC1 [CBK295285],114.597%
17,O=C(/C=C/c1cn(C2OC(CO)C(O)C2O)c(=O)[nH]c1=O)NCCCCCCNC(=O)C(F)(F)F (centres unmarked) [CBK201231],156.846%
18,O=C(O)Cn1c2ccccc2c2nc3ccccc3nc21 [CBK263649],128.462%
19,Fc1cnc(N2CCCC3(CCOC3)C2)nc1N1CCOCC1 (centres unmarked) [CBK307131],146.132%
20,CCOC(=O)C1(O)CCN(c2ccc(C#N)cc2F)CC1 [CBK304836],91.6914%
21,CN(C1CCCCC1)S(=O)(=O)c1cc(Cl)ccc1Cl [CBK261744],87.7091%
22,Cc1c(F)cccc1CNCCNC(=O)OC(C)(C)C [CBK056700],122.435%
23,CCCn1ncc(C(=O)N2CCc3c([nH]c4ccccc34)C2C)c1C (centres unmarked) [CBK281546],83.686%
24,CC(C)NC(=O)c1cc([C@H]2CC[C@H](CNC(=O)CN3CCCC3)CC2)nc2ccccc12 [CBK285861],130.476%
25,C#CC1(NC(=O)NS(=O)(=O)c2ccc(C)cc2)CCCCC1 [CBK028805],119.136%

# Three compounds picked at random from the list so far:
row,SMILES,% of control remaining
17,O=C(/C=C/c1cn(C2OC(CO)C(O)C2O)c(=O)[nH]c1=O)NCCCCCCNC(=O)C(F)(F)F (centres unmarked) [CBK201231],156.846%
11,COCc1cc(C)nc(OCC(=O)N2CCCCC2)c1C#N [CBK270228],119.31%
1,Cc1nc(CCNC(=O)C2CC(c3cccc(F)c3)=NO2)cs1 (centres unmarked) [CBK305798],127.061%

# (more compounds)

row,SMILES,% of control remaining
1,CC(=O)N[C@H]1CC[C@]2(C)CCC([C@H](C)C(=O)NCCN3CCOCC3)[C@H](O)[C@H]2[C@@H]1C (some centres unmarked) [CBK289434],103.455%
2,Cc1cccc2sc(NC(=O)c3ccccc3)nc12 [CBK287300],139.231%
3,Oc1ccccc1CN1CCN(Cc2ccccc2O)C1c1ccccc1Br [CBK262050],99.5733%
4,O=C(Nc1ccc2n(c1=O)C[C@@H]1CNC[C@H]2C1)c1ccc(F)cc1 [CBK289078],120.532%
5,CS(=O)(=O)c1ccc(C(=O)N(Cc2ccccc2)c2ccc(S(=O)(=O)N3CCOC3=O)cc2)cc1 [CBK024590],95.961%
6,CNS(=O)(=O)c1ccc2c(c1)CCN2C(=O)C1C2CCCCC21 (centres unmarked) [CBK281521],129.317%
7,O=C(CCc1nc(-c2ccccc2F)no1)Nc1ccccc1[N+](=O)[O-] [CBK268341],140.164%
8,CCCc1nc(CN2CCN(c3ccc4nncn4n3)CC2)cs1 [CBK305330],106.477%
9,COc1cccc(C2CCCN2C(=O)CC2CCN(C(=O)CC3CCCCC3)CC2)c1 (centres unmarked) [CBK286264],137.474%
10,CC(C)C(=O)NC(NC(=S)Nc1cccc2cccnc12)C(Cl)(Cl)Cl (centres unmarked) [CBK261051],100.728%
11,Cc1ccc(-c2nn(CCC#N)cc2C(=O)N2CCOCC2)cc1 [CBK305939],82.0458%
12,CSc1nnc(CC2CCN(C(=O)c3cc(C)on3)CC2)n1C [CBK307481],106.285%
13,Nc1ncc(-c2ccc(Cl)cc2)nc1-c1ccc(N2CCOCC2)cc1 [CBK063953],90.5332%
14,Nc1nonc1-c1cccnc1 [CBK006120],100%
15,O=C(O)CC1S/C(=N/N=C2/C(=O)Nc3ccccc32)N(c2ccc(O)cc2)C1=O (centres unmarked) [CBK263723],92.4206%
16,CC(C)c1nccn1-c1ccc(NC(=O)CCCn2ccnc2)cc1 [CBK281380],98.6368%
17,COc1cc(Cn2ncc(N3CCCCC3)cc2=O)cc(OC)c1 [CBK307662],94.4285%
18,Cc1nccn1CCNC(=O)c1cc(C2CCCCC2)no1 [CBK283295],116.119%
19,CS(=O)(=O)c1ccc(Cn2ccnc(N3CCC(Sc4ccccc4)CC3)c2=O)cc1 [CBK144444],115.2%
20,O=C(CCn1cnc2ccccc21)NNC(=O)Nc1cccc(C(F)(F)F)c1 [CBK269093],145.56%
21,CCOC(=O)c1ccc(-c2nccnc2Oc2cccc(OC)c2)cc1 [CBK107115],183.813%
22,COc1ccc(-c2cccc(C3CCCN(C(=O)c4ccc(F)cc4)C3)n2)cc1 (centres unmarked) [CBK286107],119.314%
23,CCC(CO)Nc1nccnc1-c1cccc(C(=O)N2CCN(C)CC2)c1 (centres unmarked) [CBK037087],175.29%
24,Cn1ccnc1C1(O)CCN(C(=O)Nc2ccccc2Cl)CC1 [CBK282278],109.624%
25,O=C(Nc1ccc(S(=O)(=O)Nc2ncccn2)cc1)c1cc([N+](=O)[O-])ccc1Cl [CBK263717],137.203%
